Data taken from the supplement of paper PMC10849652.
Some of the results follow.

By UniProt entry, the sequences of proteins in these tests, tags left out. Where a name states a change or a piece, a line headed by the entry shows the natural chain unless it says otherwise.
UniProt P60174, whole entry, looked up: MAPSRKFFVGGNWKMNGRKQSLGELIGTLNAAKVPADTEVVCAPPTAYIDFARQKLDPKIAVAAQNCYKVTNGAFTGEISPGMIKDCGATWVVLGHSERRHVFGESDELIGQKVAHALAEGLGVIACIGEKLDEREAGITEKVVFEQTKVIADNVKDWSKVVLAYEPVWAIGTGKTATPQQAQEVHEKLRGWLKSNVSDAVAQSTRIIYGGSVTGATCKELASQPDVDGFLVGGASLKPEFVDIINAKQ
UniProt P29144: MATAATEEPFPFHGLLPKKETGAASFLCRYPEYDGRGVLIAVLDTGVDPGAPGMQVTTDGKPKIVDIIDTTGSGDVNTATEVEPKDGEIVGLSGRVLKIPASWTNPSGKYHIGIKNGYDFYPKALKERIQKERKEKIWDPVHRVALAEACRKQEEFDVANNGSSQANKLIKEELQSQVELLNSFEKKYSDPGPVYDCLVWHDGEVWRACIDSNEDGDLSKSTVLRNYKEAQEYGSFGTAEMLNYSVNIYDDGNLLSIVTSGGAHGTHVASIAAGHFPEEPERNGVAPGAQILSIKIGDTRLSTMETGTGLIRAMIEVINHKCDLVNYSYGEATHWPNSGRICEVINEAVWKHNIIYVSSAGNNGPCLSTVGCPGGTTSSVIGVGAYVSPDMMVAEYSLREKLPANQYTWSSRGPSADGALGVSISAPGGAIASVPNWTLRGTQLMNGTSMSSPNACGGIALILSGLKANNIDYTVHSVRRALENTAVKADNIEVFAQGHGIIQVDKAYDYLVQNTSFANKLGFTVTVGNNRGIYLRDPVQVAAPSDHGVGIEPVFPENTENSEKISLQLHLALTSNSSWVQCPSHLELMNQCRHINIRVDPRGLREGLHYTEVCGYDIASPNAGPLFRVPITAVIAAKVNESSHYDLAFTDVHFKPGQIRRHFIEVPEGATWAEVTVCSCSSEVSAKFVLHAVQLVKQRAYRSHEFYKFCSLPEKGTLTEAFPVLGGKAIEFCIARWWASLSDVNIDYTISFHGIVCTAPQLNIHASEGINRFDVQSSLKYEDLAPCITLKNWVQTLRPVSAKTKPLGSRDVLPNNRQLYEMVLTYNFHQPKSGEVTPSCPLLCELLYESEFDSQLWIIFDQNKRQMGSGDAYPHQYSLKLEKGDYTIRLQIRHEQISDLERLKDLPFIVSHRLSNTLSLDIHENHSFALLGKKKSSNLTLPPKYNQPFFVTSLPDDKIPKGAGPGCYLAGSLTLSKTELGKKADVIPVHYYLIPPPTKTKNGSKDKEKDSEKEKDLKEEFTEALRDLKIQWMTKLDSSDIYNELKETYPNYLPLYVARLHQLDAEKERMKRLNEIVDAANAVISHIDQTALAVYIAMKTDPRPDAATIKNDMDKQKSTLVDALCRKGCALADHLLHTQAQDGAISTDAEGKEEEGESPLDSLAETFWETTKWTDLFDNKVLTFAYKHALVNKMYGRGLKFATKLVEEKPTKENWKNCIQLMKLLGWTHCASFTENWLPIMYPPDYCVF
UniProt Q13625: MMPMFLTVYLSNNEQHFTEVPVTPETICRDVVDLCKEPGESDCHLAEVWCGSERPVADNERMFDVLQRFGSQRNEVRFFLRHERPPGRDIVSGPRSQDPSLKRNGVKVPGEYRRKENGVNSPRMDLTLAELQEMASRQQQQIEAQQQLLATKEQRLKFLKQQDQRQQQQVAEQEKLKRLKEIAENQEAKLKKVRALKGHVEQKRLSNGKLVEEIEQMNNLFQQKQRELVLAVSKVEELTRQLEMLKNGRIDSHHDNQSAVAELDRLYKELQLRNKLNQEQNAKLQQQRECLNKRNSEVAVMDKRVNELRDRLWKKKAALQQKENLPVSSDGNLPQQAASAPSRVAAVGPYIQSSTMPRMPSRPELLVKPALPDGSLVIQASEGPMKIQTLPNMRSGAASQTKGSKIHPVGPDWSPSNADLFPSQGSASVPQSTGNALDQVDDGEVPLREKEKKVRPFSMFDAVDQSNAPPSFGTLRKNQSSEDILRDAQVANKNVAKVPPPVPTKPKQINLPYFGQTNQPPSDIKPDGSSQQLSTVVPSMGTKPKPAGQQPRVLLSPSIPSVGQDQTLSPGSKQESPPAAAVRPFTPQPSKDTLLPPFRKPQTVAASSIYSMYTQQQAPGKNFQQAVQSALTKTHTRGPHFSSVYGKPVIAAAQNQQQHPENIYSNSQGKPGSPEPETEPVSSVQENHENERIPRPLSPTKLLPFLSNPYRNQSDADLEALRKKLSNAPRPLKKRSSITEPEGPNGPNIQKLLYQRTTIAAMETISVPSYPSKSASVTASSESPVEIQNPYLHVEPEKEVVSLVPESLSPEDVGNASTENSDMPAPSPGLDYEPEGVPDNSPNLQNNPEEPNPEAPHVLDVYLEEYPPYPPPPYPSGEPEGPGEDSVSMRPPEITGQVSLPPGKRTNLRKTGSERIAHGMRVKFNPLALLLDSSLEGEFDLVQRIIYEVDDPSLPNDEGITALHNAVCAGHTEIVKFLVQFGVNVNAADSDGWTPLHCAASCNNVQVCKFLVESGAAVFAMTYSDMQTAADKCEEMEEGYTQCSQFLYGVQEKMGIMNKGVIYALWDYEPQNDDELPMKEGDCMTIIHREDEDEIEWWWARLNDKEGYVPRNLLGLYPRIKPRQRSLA
UniProt Q6ZXV5: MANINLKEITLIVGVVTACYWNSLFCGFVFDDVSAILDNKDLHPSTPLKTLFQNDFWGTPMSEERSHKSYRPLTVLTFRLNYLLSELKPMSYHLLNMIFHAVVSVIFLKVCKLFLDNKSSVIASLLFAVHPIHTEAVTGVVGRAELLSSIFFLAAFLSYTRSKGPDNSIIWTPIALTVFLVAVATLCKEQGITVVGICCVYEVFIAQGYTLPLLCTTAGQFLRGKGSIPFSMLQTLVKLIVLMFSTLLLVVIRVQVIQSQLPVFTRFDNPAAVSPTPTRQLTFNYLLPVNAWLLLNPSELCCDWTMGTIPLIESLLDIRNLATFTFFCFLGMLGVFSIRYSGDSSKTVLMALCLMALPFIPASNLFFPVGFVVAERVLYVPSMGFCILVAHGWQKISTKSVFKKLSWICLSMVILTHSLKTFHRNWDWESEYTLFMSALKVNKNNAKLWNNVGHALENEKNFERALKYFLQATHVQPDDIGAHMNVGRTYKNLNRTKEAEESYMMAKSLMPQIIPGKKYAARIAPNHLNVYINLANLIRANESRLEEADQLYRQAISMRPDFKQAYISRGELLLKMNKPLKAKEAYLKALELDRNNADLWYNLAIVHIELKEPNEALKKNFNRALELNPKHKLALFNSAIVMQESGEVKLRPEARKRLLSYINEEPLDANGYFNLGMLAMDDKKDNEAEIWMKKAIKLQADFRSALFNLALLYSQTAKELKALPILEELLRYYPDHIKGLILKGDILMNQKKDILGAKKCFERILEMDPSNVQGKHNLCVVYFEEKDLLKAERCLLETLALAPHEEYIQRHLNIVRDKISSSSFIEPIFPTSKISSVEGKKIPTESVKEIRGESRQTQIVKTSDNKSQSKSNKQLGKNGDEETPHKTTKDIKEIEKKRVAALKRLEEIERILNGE
UniProt Q02880: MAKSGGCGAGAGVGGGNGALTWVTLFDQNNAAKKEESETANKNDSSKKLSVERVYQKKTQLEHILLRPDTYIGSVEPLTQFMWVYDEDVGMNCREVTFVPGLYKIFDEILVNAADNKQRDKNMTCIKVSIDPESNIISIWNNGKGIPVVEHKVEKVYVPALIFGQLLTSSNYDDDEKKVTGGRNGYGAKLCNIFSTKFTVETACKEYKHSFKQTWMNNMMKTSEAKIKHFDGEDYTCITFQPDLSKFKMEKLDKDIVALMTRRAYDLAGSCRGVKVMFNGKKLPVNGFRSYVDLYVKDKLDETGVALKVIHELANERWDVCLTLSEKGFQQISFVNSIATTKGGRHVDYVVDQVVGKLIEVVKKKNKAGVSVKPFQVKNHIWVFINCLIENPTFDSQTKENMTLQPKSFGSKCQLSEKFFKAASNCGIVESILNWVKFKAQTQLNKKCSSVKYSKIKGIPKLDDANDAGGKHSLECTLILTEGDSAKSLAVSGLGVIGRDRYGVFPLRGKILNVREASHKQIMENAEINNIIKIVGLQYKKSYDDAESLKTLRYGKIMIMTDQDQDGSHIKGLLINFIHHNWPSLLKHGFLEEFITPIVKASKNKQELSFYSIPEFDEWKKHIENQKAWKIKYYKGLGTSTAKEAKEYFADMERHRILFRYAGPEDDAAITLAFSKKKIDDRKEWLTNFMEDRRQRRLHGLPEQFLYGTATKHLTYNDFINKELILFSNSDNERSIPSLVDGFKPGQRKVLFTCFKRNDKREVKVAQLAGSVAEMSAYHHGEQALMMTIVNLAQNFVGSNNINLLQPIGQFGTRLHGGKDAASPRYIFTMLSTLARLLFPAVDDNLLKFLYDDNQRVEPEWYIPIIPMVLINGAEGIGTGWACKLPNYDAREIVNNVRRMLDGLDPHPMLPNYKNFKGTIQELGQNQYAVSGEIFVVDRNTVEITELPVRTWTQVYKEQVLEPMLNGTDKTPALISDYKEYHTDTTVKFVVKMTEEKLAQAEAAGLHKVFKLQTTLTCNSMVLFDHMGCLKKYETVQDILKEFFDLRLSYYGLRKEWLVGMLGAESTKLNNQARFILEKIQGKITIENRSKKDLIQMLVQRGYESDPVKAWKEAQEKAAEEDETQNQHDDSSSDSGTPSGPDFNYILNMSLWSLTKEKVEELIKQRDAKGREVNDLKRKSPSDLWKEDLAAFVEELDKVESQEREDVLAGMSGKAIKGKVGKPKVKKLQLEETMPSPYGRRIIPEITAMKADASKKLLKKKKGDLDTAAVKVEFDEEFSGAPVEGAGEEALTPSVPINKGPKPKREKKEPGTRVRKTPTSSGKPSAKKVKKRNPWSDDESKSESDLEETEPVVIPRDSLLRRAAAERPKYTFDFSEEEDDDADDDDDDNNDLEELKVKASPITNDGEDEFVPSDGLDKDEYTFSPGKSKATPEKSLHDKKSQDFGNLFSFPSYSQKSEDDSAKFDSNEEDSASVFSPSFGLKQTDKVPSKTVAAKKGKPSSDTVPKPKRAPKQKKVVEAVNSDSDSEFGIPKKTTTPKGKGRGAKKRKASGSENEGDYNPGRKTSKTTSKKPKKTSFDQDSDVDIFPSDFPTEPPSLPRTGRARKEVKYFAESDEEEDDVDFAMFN
UniProt Q86XT9, whole entry, looked up: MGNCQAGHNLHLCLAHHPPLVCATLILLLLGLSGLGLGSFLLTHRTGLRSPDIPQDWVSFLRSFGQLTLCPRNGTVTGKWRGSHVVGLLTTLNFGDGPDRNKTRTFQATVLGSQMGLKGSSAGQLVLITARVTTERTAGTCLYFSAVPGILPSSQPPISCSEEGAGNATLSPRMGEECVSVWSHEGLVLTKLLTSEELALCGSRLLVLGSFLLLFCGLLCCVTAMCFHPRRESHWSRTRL
UniProt Q9NQ34: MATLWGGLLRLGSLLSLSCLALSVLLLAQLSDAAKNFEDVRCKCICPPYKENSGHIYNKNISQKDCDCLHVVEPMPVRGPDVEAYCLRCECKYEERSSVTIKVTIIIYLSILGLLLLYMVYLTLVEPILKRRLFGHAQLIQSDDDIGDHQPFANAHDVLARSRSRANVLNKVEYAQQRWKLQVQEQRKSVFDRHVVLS
UniProt Q8IY95: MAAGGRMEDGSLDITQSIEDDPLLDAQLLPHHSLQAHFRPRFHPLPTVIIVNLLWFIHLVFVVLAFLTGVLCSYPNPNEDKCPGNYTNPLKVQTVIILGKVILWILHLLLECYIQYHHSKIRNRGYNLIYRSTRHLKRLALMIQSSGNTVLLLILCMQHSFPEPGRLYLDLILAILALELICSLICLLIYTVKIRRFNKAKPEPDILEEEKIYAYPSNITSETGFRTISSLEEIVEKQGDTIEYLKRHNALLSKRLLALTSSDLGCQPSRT
UniProt P20333, whole entry, looked up: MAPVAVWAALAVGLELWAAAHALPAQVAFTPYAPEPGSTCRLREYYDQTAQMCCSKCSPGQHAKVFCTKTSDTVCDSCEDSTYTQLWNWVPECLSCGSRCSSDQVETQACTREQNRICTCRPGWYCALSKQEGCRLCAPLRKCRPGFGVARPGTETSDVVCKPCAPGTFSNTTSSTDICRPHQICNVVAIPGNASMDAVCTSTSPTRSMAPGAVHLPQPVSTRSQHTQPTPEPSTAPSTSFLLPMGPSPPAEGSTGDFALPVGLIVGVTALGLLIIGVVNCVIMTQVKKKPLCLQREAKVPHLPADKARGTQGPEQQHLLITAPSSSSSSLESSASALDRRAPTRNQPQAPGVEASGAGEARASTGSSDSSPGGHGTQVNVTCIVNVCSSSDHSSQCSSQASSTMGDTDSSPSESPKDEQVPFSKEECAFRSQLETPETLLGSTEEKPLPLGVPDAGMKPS
UniProt O95379: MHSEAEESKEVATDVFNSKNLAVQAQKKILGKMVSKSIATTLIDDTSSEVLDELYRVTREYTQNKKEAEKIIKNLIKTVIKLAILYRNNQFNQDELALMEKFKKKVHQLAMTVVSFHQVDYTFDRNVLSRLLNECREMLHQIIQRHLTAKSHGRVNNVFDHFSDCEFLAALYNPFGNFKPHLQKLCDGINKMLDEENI

compound: C1=CC=C2C(=C1)C3=NNC4=CC=CC(=C43)C2=O; experiment: log2 fold change, soluble protein after heating vs DMSO (PISA); higher = thermal stabilisation; K562 lysate, 10 uM; active = over 0.2 and 3.5 SD of the protein, either way, in both replicates (recomputed)
Summary of the method: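 To prepare the extract, K562 pellets were dounce-homogenised in PBS pH 7.4 with 1 mM MgCl2, giving crude material at 1 mg/mL protein. This was treated with 10 μM compound for 30 min, then heated in aliquots for 3 min over 48°C-58°C before pooling and addition of NP-40 to 0.5% at 4°C. Centrifugation at 21,000xg for 90 min left soluble protein in the supernatant, which TMTpro 16plex LC-MS/MS quantified with equalised channel sums. Results are log-two fold changes in thermal stability compared with solvent controls, from duplicates.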

log2 fold change, inactive:
TPI1 (UniProt P60174) 0.072
TMOD3 (UniProt Q9NYL9) -0.021
TOR1AIP1 isoform 3 (UniProt Q5JTV8) -0.016
TNPO1 (UniProt Q92973) -0.007
TPP2 (UniProt P29144) -0.02
TOR1AIP2 (UniProt Q8NFQ8) -0.038
TP53BP1 isoform 2 (UniProt Q12888) -0.02
TP53BP2 isoform 3 (UniProt Q13625) -0.022
TMEM245 (UniProt Q9H330) -0.003
TPM1 isoform 4 (UniProt P09493) -0.015
TPM4 (UniProt P67936) 0.009
TMTC3 (UniProt Q6ZXV5) -0.013
TOP2B isoform 2 (UniProt Q02880) 0.058
TOP1 (UniProt P11387) 0.061
TOX4 (UniProt O94842) -0.003
TNFRSF8 (UniProt P28908) 0.054
TMEM63A (UniProt O94886) -0.015
TPP2 (UniProt Q5VZU9) -0.013
TMEM199 (UniProt Q8N511) -0.087
TPD52L2 isoform 7 (UniProt O43399) 0.036
TOP2A isoform 4 (UniProt P11388) -0.011
TOP3A (UniProt Q13472) 0.002
TMEM219 (UniProt Q86XT9) -0.081
TMEM9B (UniProt Q9NQ34) -0.088
TMX3 (UniProt Q96JJ7) -0.036
TPR (UniProt P12270) 0.014
TMEM192 (UniProt Q8IY95) 0.004
TPX2 (UniProt Q9ULW0) 0.001
TNFRSF1B (UniProt P20333) -0.058
TPP1 (UniProt O14773) -0.021
TP53I3 (UniProt Q53FA7) 0.039
TMEM43 (UniProt Q9BTV4) -0.069
TNFAIP8 isoform 4 (UniProt O95379) -0.123

A stretch taken from the entries so far, for reference:
log2 fold change, inactive:
TMTC3 (UniProt Q6ZXV5) -0.013
TOP2B isoform 2 (UniProt Q02880) 0.058
